Data taken from paper PMC12036661.

T1: ephrin-B1S (human) (UniProt P98172)
T1 sequence: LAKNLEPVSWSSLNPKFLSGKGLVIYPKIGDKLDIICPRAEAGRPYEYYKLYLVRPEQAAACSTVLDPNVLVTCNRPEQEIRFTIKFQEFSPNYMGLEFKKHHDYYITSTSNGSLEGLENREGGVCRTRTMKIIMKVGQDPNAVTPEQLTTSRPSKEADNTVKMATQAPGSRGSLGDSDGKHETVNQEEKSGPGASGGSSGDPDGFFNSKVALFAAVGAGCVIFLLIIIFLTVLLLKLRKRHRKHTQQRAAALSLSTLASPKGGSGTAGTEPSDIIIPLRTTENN

T2: ephrin-B1 (human, wild type) (human) (UniProt P98172)
T2 sequence: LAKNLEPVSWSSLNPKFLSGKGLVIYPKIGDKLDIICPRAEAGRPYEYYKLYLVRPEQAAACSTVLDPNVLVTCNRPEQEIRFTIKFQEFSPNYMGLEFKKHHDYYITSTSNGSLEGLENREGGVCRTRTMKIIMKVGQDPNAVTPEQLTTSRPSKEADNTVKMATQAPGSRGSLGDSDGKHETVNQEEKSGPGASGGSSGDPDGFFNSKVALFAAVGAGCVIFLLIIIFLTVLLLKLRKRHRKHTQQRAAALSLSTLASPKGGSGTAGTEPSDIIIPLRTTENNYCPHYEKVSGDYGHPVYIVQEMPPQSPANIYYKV


How the values were obtained:
ephrin-B1S (human) [1] = target: T1, ephrin-B1S (human); assay: pull-down; the same EphB2-Fc precipitation from 0.5% NP40 lysates of co-transfected HEK293T cells; Western blot; pairs of ephrin-B1S (captured through EphB2-Fc) with a co-expressed protein
ephrin-B1S (human) [2] = target: T1, ephrin-B1S (human); assay: co-IP; 0.5% NP40 lysates of co-transfected HEK293T cells precipitated with anti-CD44, anti-ephrin-B1, anti-FGFR1 or anti-FGFR4 (0.5–1 μg) and protein G beads for 2 h, 3 washes in cold PBS; Western blot
[3] = target: T2, ephrin-B1 (human, wild type) (human); assay: pull-down; 35S-sulfate-labelled HEK293T cells co-expressing ephrin-B1 and CD44V3–10; lysate precipitated with EphB2-Fc on protein G beads, released by boiling with 0.5% SDS, then re-precipitated with anti-CD44; SDS-PAGE and phosphorimager
CD44V3–10 = assay: co-IP; 0.5% NP40 lysates of co-transfected HEK293T cells precipitated with anti-CD44, anti-ephrin-B1, anti-FGFR1 or anti-FGFR4 (0.5–1 μg) and protein G beads for 2 h, 3 washes in cold PBS; Western blot

binding (ephrin-B1S (human) [1]) | binding (ephrin-B1S (human) [2]) | binding [3] | binding (CD44V3–10) | Molecule
binds | binds | binds |  | CD44V3–10
 |  |  | binds | ephrin-B1S (domain or fragment, UniProt P98172 28-312) LAKNLEPVSWSSLNPKFLSGKGLVIYPKIGDKLDIICPRAEAGRPYEYYKLYLVRPEQAAACSTVLDPNVLVTCNRPEQEIRFTIKFQEFSPNYMGLEFKKHHDYYITSTSNGSLEGLENREGGVCRTRTMKIIMKVGQDPNAVTPEQLTTSRPSKEADNTVKMATQAPGSRGSLGDSDGKHETVNQEEKSGPGASGGSSGDPDGFFNSKVALFAAVGAGCVIFLLIIIFLTVLLLKLRKRHRKHTQQRAAALSLSTLASPKGGSGTAGTEPSDIIIPLRTTENN

These are yes or no findings as the source states them, for the method shown. In cells and extracts the contact can be indirect. Binding can be weak; no strength is given.
